Results taken from paper PMC4231674.
No constants are given. Whether binding was seen depends on the method and setting. Binding seen in cells or lysates may run through a third protein. Some results given as binding are weak or reduced against the parent protein; the word gives no strength. Tags and fused reporters may be left off the sequences shown.

By UniProt entry, the sequences of proteins in these tests, tags left out.
UniProt P26641: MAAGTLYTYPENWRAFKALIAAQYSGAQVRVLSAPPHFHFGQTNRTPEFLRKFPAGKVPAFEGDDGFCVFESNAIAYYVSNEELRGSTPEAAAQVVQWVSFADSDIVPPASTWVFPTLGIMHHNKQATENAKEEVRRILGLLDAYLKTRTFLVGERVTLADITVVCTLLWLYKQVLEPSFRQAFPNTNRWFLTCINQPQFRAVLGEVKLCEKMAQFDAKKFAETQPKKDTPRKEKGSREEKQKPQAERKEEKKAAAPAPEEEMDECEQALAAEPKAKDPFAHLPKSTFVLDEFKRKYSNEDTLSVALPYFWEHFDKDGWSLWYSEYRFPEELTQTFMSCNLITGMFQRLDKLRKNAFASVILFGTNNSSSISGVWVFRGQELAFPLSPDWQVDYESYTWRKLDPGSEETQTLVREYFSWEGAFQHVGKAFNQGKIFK
UniProt P68104: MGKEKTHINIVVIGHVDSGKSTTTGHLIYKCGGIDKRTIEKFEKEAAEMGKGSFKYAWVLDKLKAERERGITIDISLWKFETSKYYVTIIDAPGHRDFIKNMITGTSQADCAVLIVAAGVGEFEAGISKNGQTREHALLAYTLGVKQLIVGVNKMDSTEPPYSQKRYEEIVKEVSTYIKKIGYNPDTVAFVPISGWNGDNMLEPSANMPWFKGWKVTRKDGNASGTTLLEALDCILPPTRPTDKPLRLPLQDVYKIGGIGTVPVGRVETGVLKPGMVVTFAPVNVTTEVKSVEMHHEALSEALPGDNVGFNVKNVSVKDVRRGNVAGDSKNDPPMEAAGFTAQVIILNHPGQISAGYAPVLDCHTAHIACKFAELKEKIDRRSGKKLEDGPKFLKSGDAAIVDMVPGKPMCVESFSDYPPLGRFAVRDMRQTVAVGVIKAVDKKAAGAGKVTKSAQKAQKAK

Tests used:
[1] = target: His-eEF1Bγ (human eukaryotic elongation factor 1B gamma) (human) (UniProt P26641); assay: pull-down + SEC; three proteins co-expressed in BHK-21 cells; lysate on nickel-nitrilotriacetic acid resin, washed with 500 mM KCl then 100 mM KCl buffer (20 mM HEPES-KOH pH 7.5, 0.1% Triton X-100, 10 mM imidazole), eluted with 50-1000 mM imidazole; eluates on HiPrep 16/60 Sephacryl S-300 HR in 20 mM HEPES-KOH pH 7.5, 100 mM KCl, 10% glycerol
[2] = target: His-eEF1A (human eukaryotic elongation factor 1A) (human) (UniProt P68104); assay: as above

B1: eEF1Bα (human eukaryotic elongation factor 1B alpha), untagged (protein, UniProt P24534 1-225)
chain: MGFGDLKSPAGLQVLNDYLADKSYIEGYVPSQADVAVFEAVSSPPPADLCHALRWYNHIKSYEKEKASLPGVKKALGKYGPADVEDTTGSGATDSKDDDDIDLFGSDDEEESEEAKRLREERLAQYESKKAKKPALVAKSSILLDVKPWDDETDMAKLEECVRSIQADGLVWGSSKLVPVGYGIKKLQIQCVVEDDKVGTDMLEEQITAFEDYVQSMDVAAFNKI
In the case of B1, the binding [1] is reported as “binds” and the binding [2] is reported as “binds”.
